Measurements as given in PubChem BioAssay AID504444 (National Center for Advancing Translational Sciences (NCATS), 2011).
Screen size: about 360,000 compounds; about 7,500 (2.1%) were called active. Inconclusive means that the source gave no clear call. Such entries were picked first, then a sample of the others. The call rests on the fitted dose curve; in most records, active means well fitted inhibition curve with a large enough effect; inconclusive means small, poorly fitted or top-dose-only effect, or effect the other way; inactive means flat fitted curve, though single readings scatter. A potency beside an inconclusive call is a rough fit, not a confirmed value.

Assay: Nrf2 qHTS screen for inhibitors; further: nearly all actives have a fitted effect of over 60% in size
Conditions: A549 ARE-Fluc reporter, luciferase luminescence, 18-24 h; series mostly up to 46 µM
Summary of the method: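 Cells were seeded and rested 2 h, then exposed to compounds for 18-24 h. CellTiter-Fluor was read first as a viability measure. BugLite was added 15 min before the final luminescent read of ARE-luciferase activity in A549 cells.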
Potency means the concentration at half of the fitted maximal effect.

SMILES	Potency
Cc1nnc2n1N=C(c1ccc3c(c1)NC(=O)CO3)CS2	inconclusive: 25.9 µM [falling, single point]
CCN(CC)S(=O)(=O)c1ccc(Oc2ccccc2OC)cc1	inconclusive: 29.1 µM [falling, single point]
O=C(CCl)N=c1sccn1Cc1cccc2ccccc12	inactive
CN(c1cccc(NC(=O)c2ccc(Cl)c(S(=O)(=O)N3CCOCC3)c2)c1)S(C)(=O)=O	inconclusive: 29.1 µM [falling, single point]
COc1ccc(/C=C(/C(=O)Nc2ccccc2C(=O)N2CCCC2)c2ccccc2)cc1	inconclusive: 16.4 µM [falling, single point]
CCCCNC(=O)C12CCC(C)(C(=O)C1Br)C2(C)C (configuration not stated)	inconclusive: 2.06 µM [activator, partial curve, poor fit]
COc1cccc(-c2csc(N3CCN(C(=O)Nc4ccc(F)cc4)CC3)n2)c1	inconclusive: 29.1 µM [falling, single point]
CCC(=O)Nc1cccc(NC(=S)NC(=O)c2ccccc2Cl)c1	inconclusive: 2.06 µM [activator, partial curve, poor fit]
CC(=O)c1ccc(OCc2ccc(C(=O)c3ccccc3)cc2)cc1	inconclusive: 23.1 µM [falling, single point]
COc1ccc(CNC(=O)CN2CCC(C(=O)c3ccc(OC)cc3)CC2)cc1	inconclusive: 23.1 µM [falling, single point]
N#Cc1nnn(Cc2ccccc2)c1N	inconclusive: 3.26 µM [falling, partial curve, poor fit]
COc1cccc(C(=O)Nc2cc3c(cc2Cl)OCCCO3)c1	inconclusive: 6.51 µM [activator, partial curve]
COc1ccc(/C=C/C(=O)NC(=S)NNC(=O)c2cc(OC)c(OC)c(OC)c2)cc1	inconclusive: 11.6 µM [falling, partial curve]
NC(=O)c1ccccc1NC(=O)CSc1nc2c(c(=O)[nH]1)CCCC2	inconclusive: 29.1 µM [falling, single point]
Cc1ccc(NC(=O)c2ccc3c(=O)n4c(nc3c2)CCCCC4)cc1F	active: 18.4 µM
CCc1nn(CCCC(=O)NCc2ccc(OC)c(OC)c2)c(=O)c2cc3occc3n12	inactive
Cc1ccc(N=Cc2c(O)n(-c3ccc4c(c3)OCO4)c(=O)c3ccccc23)cc1	inconclusive: 0.146 µM [falling, full curve]
Cc1ccc(NS(=O)(=O)c2cc3c4c(c2)CC(=O)N4CCC3)cc1C	inconclusive: 13 µM [falling, partial curve, poor fit]
O=S(=O)(NCCOc1ccccc1)c1ccc2ccccc2c1	inconclusive: 32.6 µM [falling, single point]
CCOc1ccc(CC(=O)NCC(=O)NCc2cc(=O)n(C)c(=O)n2C)cc1	inactive
O=C(CN1CCCC1c1cccs1)Nc1cccc(S(=O)(=O)N2CCCC2)c1 (configuration not stated)	inconclusive: 23.1 µM [falling, single point]
S=C(NCC1CCCO1)N1CCN(c2cccc(Cl)c2)CC1 (configuration not stated)	active: 20.6 µM
COc1ccc(C(=O)OCCN2CCCCC2)cc1	inconclusive: 10.3 µM [activator, partial curve]

SMILES	Potency
C/C(=N/NC(=O)c1cc(-c2ccccc2)nc2c(Cl)cccc12)c1cccnc1	inactive
O=C(c1ccc(Cl)cc1)c1ccc(OCC(=O)N2CCOCC2)cc1	inconclusive: 23.1 µM [falling, single point]
CCCn1c(C)cc(C(=O)COC(=O)c2nccnc2N)c1C	inconclusive: 1.3 µM [activator, partial curve, poor fit]
O=C(N/N=C/C(Br)=C\c1ccccc1)c1ccco1	inconclusive: 5.8 µM [activator, partial curve]
O=C(c1ccco1)N1CCN(S(=O)(=O)/C=C/c2ccccc2)CC1	inconclusive: 32.6 µM [falling, single point]
CN(Cc1ccc(Cl)cc1)C(=O)CCl	inconclusive: 20.6 µM [falling, single point]
CC(C)N1CCC(N2CCN(CCCc3ccccc3)CC2CCO)CC1 (configuration not stated)	inactive
CCc1ccc(Nc2ccc(C(=O)O)cc2[N+](=O)[O-])cc1	inconclusive: 2.91 µM [activator, single point]
Cc1nn(-c2ccccc2)c(C)c1/C=N/NC(=O)c1cc(-c2cccc3ccccc23)n[nH]1	inactive
CCCCSc1cc(C)nc(N)n1	inconclusive: 20.6 µM [activator, partial curve, poor fit]
CC1(C)Cc2c(sc(NC(=O)C(=O)NCCCN3CCOCC3)c2C(N)=O)CO1	inconclusive: 13 µM [activator, partial curve, poor fit]
COc1ccc(NC2CCCN(C(=O)c3cc4ncccn4n3)C2)cc1 (configuration not stated)	inconclusive: 20.6 µM [activator, single point]
O=C(O)c1ccc(-c2noc(-c3ccccc3Cl)n2)cc1	inconclusive: 2.06 µM [activator, full curve]
Cc1cc(O)c2c(c1)CC1C3CCC4CC(=O)CCC4(C)C3CC(=O)C21C (configuration not stated)	inconclusive: 5.17 µM [falling, partial curve, poor fit]
COc1cc(OC)c(NC(=O)CSc2nc3ccncc3[nH]2)cc1Cl	inconclusive: 16.4 µM [falling, single point]
COc1cc(NS(=O)(=O)c2ccc(C)c(C)c2)c(OC)cc1Cl	inconclusive: 20.6 µM [falling, partial curve, poor fit]
CCc1c(C)nc2ncnn2c1N1CCCC(C(=O)NCc2cccs2)C1 (configuration not stated)	inconclusive: 20.6 µM [falling, partial curve]
CCC(NC(=S)NCc1ccc(F)cc1)c1ccc(C(C)C)cc1 (configuration not stated)	inconclusive: 20.6 µM [falling, single point]
COc1ccc(C2(O)CCN(CC(=O)Nc3nc(-c4ccccc4)cs3)CC2)cc1	inconclusive: 29.1 µM [falling, single point]
CC(=O)c1ccc(Nc2ccc(-c3ccccc3F)nn2)cc1	inconclusive: 7.31 µM [activator, partial curve]
CC(C)CC(NC(=O)C1CCC(C)CC1)C(=O)OCC(=O)c1ccc(Cl)cc1 (configuration not stated)	inactive
CSc1nnc2n(C)c3c(c(=O)n12)C1(CCCC1)Cc1ccccc1-3	inactive
COc1cc2ccccc2cc1C(=O)Nc1ccccc1C	inconclusive: 11.6 µM [activator, partial curve]

Quoted from the results shown (4 entries):
SMILES	Potency
COc1ccc(NC2CCCN(C(=O)c3cc4ncccn4n3)C2)cc1 (configuration not stated)	inconclusive: 20.6 µM [activator, single point]
O=C(O)c1ccc(-c2noc(-c3ccccc3Cl)n2)cc1	inconclusive: 2.06 µM [activator, full curve]
Cc1cc(O)c2c(c1)CC1C3CCC4CC(=O)CCC4(C)C3CC(=O)C21C (configuration not stated)	inconclusive: 5.17 µM [falling, partial curve, poor fit]
COc1cc(OC)c(NC(=O)CSc2nc3ccncc3[nH]2)cc1Cl	inconclusive: 16.4 µM [falling, single point]

Next part.

SMILES	Potency
CC[C@]12c3[nH]c4ccc(OC)cc4c3CCN1C(=O)C(CC(=O)NCC13CC4CC(CC(C4)C1)C3)C[C@@H]2C(=O)N1CCN(C(=O)c2ccco2)CC1 (some centres not stated)	inconclusive: 29.1 µM [falling, single point]
CC(=O)Nc1cc(-c2nc3ccccc3o2)ccc1Cl	inconclusive: 5.8 µM [activator, partial curve]
COc1ccc(C(C)C)cc1S(=O)(=O)Nc1ncn[nH]1	inconclusive: 20.6 µM [falling, single point]
CCOC(=O)c1c(-c2ccccc2)nc2ccccn12	inactive
Cc1ccc(C(=O)Nc2cccc(S(=O)(=O)N3CCCCC3)c2)cc1[N+](=O)[O-]	active: 16.4 µM
O=C(Nc1ccccc1)c1ccc(NCCc2ccccc2)c([N+](=O)[O-])c1	inconclusive: 29.1 µM [falling, single point]
O=C(N/N=C/c1ccsc1)c1ccccn1	inconclusive: 1.3 µM [activator, full curve]
COc1ccc(S(=O)(=O)N2CCOCC2)cc1NC(=O)COC(=O)c1[nH]c(C)c(C(C)=O)c1C	inconclusive: 2.06 µM [falling, full curve]
CCCCc1ccc(NC(=O)C2CCCC2)cc1	inconclusive: 20.6 µM [activator, partial curve]
COC(=O)c1cc2c(=O)n3ccccc3nc2n(Cc2cccnc2)c1=N	inactive
Clc1ccccc1Cc1noc(CN2CCN(Cc3ccccn3)CC2)n1	inconclusive: 29.1 µM [activator, partial curve, poor fit]
CCOC(=O)c1nc(NNC(=O)c2ccc([N+](=O)[O-])cc2)sc1C	inconclusive: 23.1 µM [falling, single point]
O=C(COC(=O)c1ccc(O)cc1O)Nc1ccc(Cl)cn1	inactive
Cc1cc(Nc2nc3ccccc3nc2Cl)n(-c2ccccc2)n1	inconclusive: 2.31 µM [activator, full curve]
CCS(=O)(=O)Nc1ccccc1C(N)=O	inconclusive: 2.31 µM [falling, partial curve]
COc1ccc(-n2c(C)cc(/C=C3\SC(=O)NC3=O)c2C)cc1	inconclusive: 2.59 µM [activator, single point]
CCN(CC(=O)Nc1c(F)cccc1F)C(=O)c1cc(S(=O)(=O)N2CCOCC2)ccc1N1CCCC1	inconclusive: 16.4 µM [falling, single point]
O=C(NCc1cccnc1)c1cccc(OC2CCN(Cc3ccc(CO)o3)CC2)c1	inconclusive: 1.46 µM [falling, full curve, poor fit]
COc1ccc(NC(=O)c2cc(C)no2)cc1Cl	inactive
O=C1C2C3C=CC(CO)(O3)C2C(=O)N1c1ccccc1-c1ccccc1 (configuration not stated)	inconclusive: 18.4 µM [falling, single point]
CCOc1ccc(Nc2c(S(=O)(=O)c3ccccc3)cnc3ccc(CC)cc23)cc1	inconclusive: 4.61 µM [falling, partial curve, poor fit]
